In assay [1] the target is T1, GFP-Gemin2 wt (human), O14893.
T1 chain: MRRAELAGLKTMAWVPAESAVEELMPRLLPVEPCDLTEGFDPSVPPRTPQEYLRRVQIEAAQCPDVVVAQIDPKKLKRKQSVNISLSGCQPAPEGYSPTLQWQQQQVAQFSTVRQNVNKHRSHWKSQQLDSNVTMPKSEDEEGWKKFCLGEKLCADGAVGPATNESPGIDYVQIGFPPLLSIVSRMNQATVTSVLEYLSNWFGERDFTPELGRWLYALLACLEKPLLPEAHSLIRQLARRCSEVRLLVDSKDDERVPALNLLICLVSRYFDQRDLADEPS
In words: co-IP; GFP immunopurification: S100 extracts of doxycycline-induced (0.1 µg/mL, 24 h) Flp-In T-REx 293 cells on GFP-Trap beads, at least 2 h at 4 °C, washed 3 times with DPBS; Western blot. The conditions noted are these: remark: other sources report otherwise.

The target in assay [2] is GFP-SMN wt (human), Q16637. The description is as above. The conditions noted are these: remark: other sources report otherwise.

In publication PMC10649565 one finds binding data, which are given here for two molecules.

No constants are given. Whether binding was seen depends on the method and setting. Binding seen in cells or lysates may run through a third protein. Some binding calls cover weakened binding; strength is not graded here. For part of these data: Tags and fused reporters may be left off the sequences shown.

B1: Gemin4 (endogenous), P57678 1-1058 (protein)
chain: MDLGPLNICEEMTILHGGFLLAEQLFHPKALAELTKSDWERVGRPIVEALREISSAAAHSQPFAWKKKALIIIWAKVLQPHPVTPSDTETRWQEDLFFSVGNMIPTINHTILFELLKSLEASGLFIQLLMALPTTICHAELERFLEHVTVDTSAEDVAFFLDVWWEVMKHKGHPQDPLLSQFSAMAHKYLPALDEFPHPPKRLRSDPDACPTMPLLAMLLRGLTQIQSRILGPGRKCCALANLADMLTVFALTEDDPQEVSATVYLDKLATVISVWNSDTQNPYHQQALAEKVKEAERDVSLTSLAKLPSETIFVGCEFLHHLLREWGEELQAVLRSSQGTSYDSYRLCDSLTSFSQNATLYLNRTSLSKEDRQVVSELAECVRDFLRKTSTVLKNRALEDITASIAMAVIQQKMDRHMEVCYIFASEKKWAFSDEWVACLGSNRALFRQPDLVLRLLETVIDVSTADRAIPESQIRQVIHLILECYADLSLPGKNKVLAGILRSWGRKGLSEKLLAYVEGFQEDLNTTFNQLTQSASEQGLAKAVASVARLVIVHPEVTVKKMCSLAVVNLGTHKFLAQILTAFPALRFVEEQGPNSSATFMVSCLKETVWMKFSTPKEEKQFLELLNCLMSPVKPQGIPVAALLEPDEVLKEFVLPFLRLDVEEVDLSLRIFIQTLEANACREEYWLQTCSPFPLLFSLCQLLDRFSKYWQLPKEKRCLSLDRKDLAIHILELLCEIVSANAETFSPDVWIKSLSWLHRKLEQLDWTVGLRLKSFFEGHFKCEVPATLFEICKLSEDEWTSQAHPGYGAGTGLLAWMECCCVSSGISERMLSLLVVDVGNPEEVRLFSKGFLVALVQVMPWCSPQEWQRLHQLTRRLLEKQLLHVPYSLEYIQFVPLLNLKPFAQELQLSVLFLRTFQFLCSHSCRDWLPLEGWNHVVKLLCGSLTRLLDSVRAIQAAGPWVQGPEQDLTQEALFVYTQVFCHALHIMAMLHPEVCEPLYVLALETLTCYETLSKTNPSVSSLLQRAHEQRFLKSIAEGIGPEERRQTLLQKMSSF
On to B1, for which the binding entry in assay [1] and in assay [2] was “binds” throughout.

B2: Gemin2 (endogenous), O14893 1-280 (protein)
chain: T1 chain
B2: the binding result in assay [1] is recorded as “binds”.
